# End groups of sequences in plain letters are not given here.
# Assay: general procedure: Fmoc solid-phase peptide synthesis
# Details: whole synthesis
sequence,measurement,value
EARPALLTSRLRFIPK (listed as Homo sapiens),final purity (method not given),94.13%

# — patent US10561703B2 (GEMVAX & KAEL CO., LTD., priority 2013, dated 2020)
